# These are yes or no findings as the source states them, for the method shown. Some entries that bind do so weakly or less than the wild type.
# B1: anti-CD71 M21 mouse monoclonal antibody (antibody, V domains shown)
# VH: EVQLQESGTVLARPGASVKMSCKASGYTFTSYWMHWVKQRPGQGLEWIGAIYPGNSETGYNQNFKGKAKLTAVTSASTAYMDLSSLTNEDSAVYYCTRENWDPGFAFWGQGTLITVSA
# VL: DIVMTQTPAIMSASPGEKVTITCSASSSVYYMYWFQQKPGTSPKLWIYSTSNLASGVPVRFSGSGSGTSYSLTISRMEAEDAATYYCQQRRNYPYTFGGGTKLEIKR
# Columns and labels:
# [1] = target: human CD71 on the surface of human cell lines (human) (UniProt P02786); assay: FACS on BxPC3 cells
# [2] = target: human CD71 on the surface of human cell lines (human) (UniProt P02786); assay: FACS on cells
binder,measurement,setting,value
B1,binding,[1],binds
same,binding,[2],binds

# — patent US20190111150A1
